Test results from PubChem BioAssay AID504847 (National Center for Advancing Translational Sciences (NCATS), 2011).
About 3,700 (0.93%) of roughly 400,000 compounds were called active. This list was built around the results that the source calls inconclusive (neither active nor inactive); the mix of calls is not that of the screen. The call rests on the fitted dose curve; in most records, active means well fitted inhibition curve with a large enough effect; inconclusive means small, poorly fitted or top-dose-only effect, or another doubt; inactive means no such curve, though single readings can be large or run the other way. Potencies of inconclusive entries are doubtful fits and often do not repeat.

The chains behind the UniProt entries cited, without tags or fusion partners. Where a name states a change or a piece, a line headed by the entry shows the natural chain unless it says otherwise.
UniProt P11473: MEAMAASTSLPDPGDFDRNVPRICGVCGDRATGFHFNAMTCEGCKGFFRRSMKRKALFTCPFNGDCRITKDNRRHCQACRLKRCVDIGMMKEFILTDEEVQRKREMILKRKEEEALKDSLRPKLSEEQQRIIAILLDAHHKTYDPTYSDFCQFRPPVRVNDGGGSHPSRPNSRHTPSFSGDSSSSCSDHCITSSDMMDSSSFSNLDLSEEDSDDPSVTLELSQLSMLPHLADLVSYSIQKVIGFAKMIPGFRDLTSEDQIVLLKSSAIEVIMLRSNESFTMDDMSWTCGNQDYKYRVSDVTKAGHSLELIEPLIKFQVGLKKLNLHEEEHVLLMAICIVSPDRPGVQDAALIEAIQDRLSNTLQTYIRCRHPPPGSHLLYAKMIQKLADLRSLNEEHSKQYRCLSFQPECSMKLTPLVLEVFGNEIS

Target: Vitamin D3 receptor (Homo sapiens) (UniProt P11473)
Assay: Inhibitors of the vitamin D receptor (VDR): qHTS
Conditions: VDR-SRC2-3 peptide fluorescence polarization, 2 h; max response, negative = inhibition: hits give low values
Method in brief: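 Two reagent solutions held at 4 deg C in the dark were dispensed, compounds pinned at 23 nl, and the mixture incubated 2 h at room temperature. Read-out: fluorescence polarization of VDR–SRC2-3 peptide binding.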
On the % scale 0 is the no-effect control and ±100 the full control effect; potency means the concentration at half of the fitted maximal effect.

SMILES	max response, negative = inhibition	Potency
COc1ccc(C2C(C(C)=O)=C(O)C(=O)N2Cc2ccccc2)c(OC)c1 (configuration not stated)	inactive: -1.67%	
O=C(CSc1nc(-c2ccccc2)c(-c2ccccc2)[nH]1)NCc1ccco1		inconclusive: 50.1 µM [inhibitor, partial curve, poor fit]
CC(Oc1ccc(Cl)cc1)C(=O)NCCN1C(=O)S/C(=C\c2cccnc2)C1=O (configuration not stated)		inconclusive: 89.1 µM [inhibitor, single point]
Cc1cc2nn(-c3cccc4ccccc34)nc2cc1N		inconclusive: 17.8 µM [inhibitor, partial curve, poor fit]
Cc1noc(NS(=O)(=O)c2ccc(N/C=C\C(=O)c3cccc4ccccc34)cc2)c1C		inconclusive: 31.6 µM [inhibitor, single point]
CN(C)c1nc(=NCc2cccs2)ss1		inconclusive: 3.98 µM [inhibitor, full curve, poor fit]
Cc1sc(NC(=O)C2CCCO2)c(C(N)=O)c1C (configuration not stated)		inconclusive: 79.4 µM [inhibitor, single point]
COc1cc(/C=C(\C#N)C(=O)NC2CCCCC2)ccc1OCc1ccc(C(=O)O)cc1		inconclusive: 50.1 µM [inhibitor, partial curve, poor fit]
COc1ccc(/C=C/C(=O)OCC(=O)c2ccc3c(c2)NC(=O)CO3)cc1	inactive: 7.51%	
CN(CCO)c1ccc(C=NNc2ccc([N+](=O)[O-])cc2S(=O)(=O)Nc2ccccc2C(=O)O)cc1		active: 79.4 µM
COC(=O)CSc1nnc(CNC(=O)c2ccccc2F)n1-c1ccccc1		inconclusive: 89.1 µM [inhibitor, single point]
Cc1c(NC(=S)NC(=O)C(c2ccccc2)c2ccccc2)cccc1C(=O)O		inconclusive: 14.1 µM [inhibitor, partial curve, poor fit]
Cc1ccc(NC(=O)C2CCCN(S(=O)(=O)c3cccc4cccnc34)C2)cc1Cl (configuration not stated)	inactive: -4.27%	
O=S(=O)(c1ccc(F)cc1)N1CCC(n2cnc3ccccc32)CC1		inconclusive: 44.7 µM [inhibitor, partial curve, poor fit]
COc1ccc(C(=O)/C=C/c2ccc(N3CCCCC3)c([N+](=O)[O-])c2)cc1		inconclusive: 79.4 µM [inhibitor, single point]
CCC(C)Sc1cc(-c2nc3ccc(Cl)cn3c2NC2CCCCC2)ccc1OC (configuration not stated)		inconclusive: 63.1 µM [inhibitor, partial curve, poor fit]
COc1ccc(-c2csc(NC(=O)CSc3nc(C)cs3)n2)cc1	inactive: -10.2%	
O=C(c1ccc2c(c1)OCO2)c1cn(Cc2ccc(F)cc2)c2ccccc2c1=O	inactive: 0.788%	
COc1ccc(CN(C(=O)c2ccc(-c3ccccc3)[nH]2)C(C(=O)NC(C)(C)C)c2ccncc2)cc1 (configuration not stated)	inactive: -8.55%	
Fc1ccc(COc2cccc3cccnc23)cc1	inactive: 5.31%	
CCOC(=O)c1ccc(N(C(=O)c2ccco2)C(C(=O)NC2CCCC2)c2ccncc2)cc1 (configuration not stated)		inconclusive: 89.1 µM [inhibitor, single point]

SMILES	max response, negative = inhibition	Potency
CC(=O)Nc1ccc(SCC(=O)Nc2ccc3c(c2)OCCO3)cc1		inconclusive: 79.4 µM [inhibitor, partial curve, poor fit]
Cc1cc(N2CCCC2)ccc1/C=C1\NC(=S)N(C)C1=O		inconclusive: 79.4 µM [inhibitor, single point]
COc1cc2c(c(OC)c1OC)C(c1ccccc1C)CC(=O)O2 (configuration not stated)		inconclusive: 112 µM [inhibitor, single point]
CCOc1cc(/C=C2/C(=N)N3OC(C)=CC3=NC2=O)ccc1OC(=O)c1ccco1	inactive: 6.62%	
O=c1[nH]c2ccc(N=Cc3c(O)ccc4cc(Br)ccc34)cc2[nH]1		inconclusive: 89.1 µM [inhibitor, single point]
O=C(NC(=S)N1CCCc2ccccc21)c1ccc(Cl)cc1		inconclusive: 89.1 µM [inhibitor, single point]
CN(C(=O)CSc1cn(CC(=O)N2CCCCCC2)c2ccccc12)c1ccccc1	inactive: 12.9%	
COc1ccccc1N1CCN(/N=C/c2cc(OC)c(OC)c(OC)c2)CC1	inactive: -14.9%	
[O-]/[N+](=C\c1ccncc1)c1ccccc1		active: 79.4 µM
CCN(CC)c1ccc(N=Cc2c(C)[nH]c3ccccc23)cc1		inconclusive: 7.08 µM [inhibitor, partial curve, poor fit]
O=C(CSc1nc2ccccc2c(=O)n1Cc1ccccc1)Nc1ccc(Br)cc1C(=O)O		inconclusive: 10 µM [inhibitor, partial curve]
COc1ccccc1CNC(=O)CSc1nc2ccccc2c(=O)n1CCCN1CCOCC1		inconclusive: 44.7 µM [inhibitor, single point]
CCc1nc(SCC(=O)Nc2ccc(N(C)C)cc2)c2ccccc2n1		inconclusive: 89.1 µM [inhibitor, single point]
CCCN(C(=O)CCc1nc(-c2ccccc2F)no1)c1ccc(CC)cc1	inactive: -7.28%	
Cc1ccc(NC(=O)CC2SC(=O)NC2=O)cc1 (configuration not stated)		inconclusive: 44.7 µM [inhibitor, partial curve]
Cc1ccc(C)c(N2CCN(C(=O)c3ccc(CS(=O)(=O)c4ccc(Br)cc4)o3)CC2)c1		inconclusive: 89.1 µM [inhibitor, single point]
C#CCCCCCCCCCCCc1ccco1		active: 35.5 µM
CC12CCC(C/C1=N/O)C2(C)CBr (configuration not stated)	inactive: -0.742%	
COc1ccccc1S(=O)(=O)Cc1ccc(C(=O)N2CCN(c3ccccn3)CC2)o1		inconclusive: 35.5 µM [inhibitor, partial curve, poor fit]
CC(C)N1C(=O)/C(=C\c2nc3ccccc3c(=O)[nH]2)c2ccccc21		inconclusive: 12.6 µM [inhibitor, full curve, poor fit]
CC(=O)Oc1cccc(/C=c2\sc3nc(-c4ccco4)nn3c2=O)c1		inconclusive: 39.8 µM [inhibitor, partial curve, poor fit]

Reformatted bar-delimited: entries from further up.
SMILES | max response, negative = inhibition | Potency
Cc1noc(NS(=O)(=O)c2ccc(N/C=C\C(=O)c3cccc4ccccc34)cc2)c1C |  | inconclusive: 31.6 µM [inhibitor, single point]
COc1ccc(/C=C/C(=O)OCC(=O)c2ccc3c(c2)NC(=O)CO3)cc1 | inactive: 7.51% | 
Cc1ccc(NC(=O)CC2SC(=O)NC2=O)cc1 (configuration not stated) |  | inconclusive: 44.7 µM [inhibitor, partial curve]
